Test results: patent US12447171B2 (CELGENE QUANTICEL RESEARCH, INC., priority 2019, dated 2025)
For part of these data: For at least one compound, name, drawing or mass did not settle the structure. Some entries repeat one wording, which the source may state once for all of them. Some of these results come from one statement about several compounds together.

What was measured:
22 AML cell lines = assay: Cell viability assay, single agents and 5-azacytidine-venetoclax combination, AML cell line panel; details: read-out: EC50 (single agent cytotoxicity); four cell lines sensitive to AZA and venetoclax but resistant to CC-90011
MOLM-13 xenograft model = assay: Disseminated MOLM-13 xenograft survival study; assay type: in vivo, mice; details: single agent midostaurin, gilteritinib or venetoclax PO qd×21
Method: (§1) LEED models oral administration of AZA, while HELD models intravenous or subcutaneous administration of AZA.
The animals were fed ad libitum water (reverse osmosis, 1 ppm Cl), and NIH 31 Modified and Irradiated Lab Diet® consisting of 18.0% crude protein, 5.0% crude fat, and 5.0% crude fiber. The mice were housed on irradiated Enrich-o'cobs™ Laboratory Animal Bedding in static microisolators on a 12-hour light cycle at 20-22° C. (68-72° F.) and 40-60% humidity.
On each day of dosing, an appropriate amount of gilteritinib was dissolved in 0.5% methylcellulose in DI water to yield a dosing solution at 0.4 mg/mL. […]
(§2) Animals were monitored individually for an endpoint of moribundity due to progression of the leukemia. […] The time to endpoint (TTE), in days, was recorded for each mouse that died of its disease or was euthanized due to extensive tumor progression. […] The median TTE value was calculated for each group. The median TTE of treated mice was expressed as a percentage of the median TTE of the control mice (% T/C), and the increase in life span (ILS) was calculated as: ILS=% T/C−100%, where T=median TTE treated, and C=median TTE control. […]
Animals were weighed daily on Days 1-5, then twice per week until the completion of the study. […] Individual body weight loss was monitored as per protocol and any animal that exceeded the limits for acceptable body weight loss was euthanized. […]

MV4-11 xenograft models = assay: Disseminated MV4-11 xenograft survival study; assay type: in vivo, mice; details: single agent venetoclax or midostaurin
Method: as §1
On each day of dosing, an appropriate amount of gilteritinib was dissolved in 0.5% methylcellulose in DI water to yield a dosing solution at 0.4 mg/mL. Each week, an appropriate amount of venetoclax was dissolved in 10% ethanol:30% PEG400:60% phosal 50 propylene glycol to yield a dosing solution at 10 mg/mL. […] Each test mouse received 5×10^6 MOLM-13 cells or 10^7 MV4-11 cells (0.2 mL cell suspension) by tail vein injection. Dosing was initiated three days after tumor cell inoculation, which was designated as Day 1 of the study. […] Vehicle was administered both IP and PO. […]
as §2
Animals were weighed daily on Days 1-5, then twice per week until the completion of the study. […] Group mean body weight loss also was monitored as per protocol. […]

| Structure (SMILES) | EC50 (22 AML cell lines) | survival compared to vehicle alone (MOLM-13 xenograft model) | survival compared to vehicle alone (MV4-11 xenograft models) |
| --- | --- | --- | --- |
| COc1ccc(-c2c(-c3ccc(C#N)c(F)c3)nc(N3CCC(N)CC3)n(C)c2=O)cc1F [CC-90011, 4-[2-(4-amino-piperidin-1-yl)-5-(3-fluoro-4-methoxy-phenyl)-1-methyl-6-oxo-1,6-dihydro-pyrimidin-4-yl]-2-fluoro-benzonitrile] | > 10 µM |  |  |
| CO[C@@H]1[C@H](N(C)C(=O)c2ccccc2)C[C@H]2O[C@]1(C)n1c3ccccc3c3c4c(c5c6ccccc6n2c5c31)C(=O)NC4 [Midostaurin] |  | significantly increased survival | increased survival |
